This is an account of results in US20100068807A1.

Assay [1] has as its target T1, FLAG-mIRF-7 (mouse IRF-7 with N-terminal FLAG tag, from pEF-BOS-FLAG-mIRF-7 or pCSII-EF-FLAG-mIRF7-IRES2-Venus) (mouse) (UniProt P70434).
T1 sequence (looked up): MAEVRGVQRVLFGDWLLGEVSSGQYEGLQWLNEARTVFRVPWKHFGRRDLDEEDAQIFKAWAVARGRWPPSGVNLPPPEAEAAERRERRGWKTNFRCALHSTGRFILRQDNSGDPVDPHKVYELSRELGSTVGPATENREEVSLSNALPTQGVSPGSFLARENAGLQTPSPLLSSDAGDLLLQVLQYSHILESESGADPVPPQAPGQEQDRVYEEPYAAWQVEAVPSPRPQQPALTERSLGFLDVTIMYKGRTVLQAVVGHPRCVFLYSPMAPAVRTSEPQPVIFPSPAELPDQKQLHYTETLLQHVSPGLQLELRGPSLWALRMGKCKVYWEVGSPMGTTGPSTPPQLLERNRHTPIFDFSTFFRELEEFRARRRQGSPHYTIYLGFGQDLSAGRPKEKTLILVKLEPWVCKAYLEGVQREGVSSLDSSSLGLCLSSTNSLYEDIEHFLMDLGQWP
Briefly: co-immunoprecipitation (anti-Flag M2 / anti-Myc PL14) and Western blot from lysate of transfected 293T cells.

Assay [2] has as its target T2, IRF-7 (endogenous, mouse Flt3L-induced bone marrow dendritic cells) (mouse) (UniProt P70434).
T2 sequence (looked up): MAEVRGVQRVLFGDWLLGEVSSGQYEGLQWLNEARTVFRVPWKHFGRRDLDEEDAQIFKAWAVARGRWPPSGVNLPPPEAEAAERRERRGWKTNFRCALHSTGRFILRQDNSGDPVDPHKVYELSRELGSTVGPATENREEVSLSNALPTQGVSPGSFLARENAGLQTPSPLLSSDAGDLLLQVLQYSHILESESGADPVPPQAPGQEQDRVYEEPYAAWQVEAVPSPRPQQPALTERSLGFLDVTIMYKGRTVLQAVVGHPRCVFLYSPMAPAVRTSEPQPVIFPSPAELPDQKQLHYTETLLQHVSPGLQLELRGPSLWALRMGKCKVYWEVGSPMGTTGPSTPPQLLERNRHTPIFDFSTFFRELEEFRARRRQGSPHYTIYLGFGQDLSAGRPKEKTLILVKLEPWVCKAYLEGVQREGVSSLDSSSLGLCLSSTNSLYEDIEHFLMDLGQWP
Briefly: co-immunoprecipitation (rabbit anti-IRF-7) and Western blot (anti-IKKα M-280) of endogenous proteins from wild-type Flt3L BM DC lysate.

The target in assay [3] is T1, FLAG-mIRF-7 (mouse IRF-7 with N-terminal FLAG tag, from pEF-BOS-FLAG-mIRF-7 or pCSII-EF-FLAG-mIRF7-IRES2-Venus) (mouse). As to the kind of experiment: co-immunoprecipitation (anti-FLAG M2) and Western blot (anti-IKKα M-280) from lysate of GM-CSF BM DC expressing FLAG-mIRF7 by lentivirus. For orientation: A western blot detects proteins with antibodies after separation by electrophoresis.

Results are given in words; binding and its absence hold for the method and conditions named. Binding seen in cells or lysates may run through a third protein. Some entries that bind do so weakly or less than the wild type. For part of these data: Sequences can lack the tags named with a protein.

B1: 6myc-mIKKα (wild-type mouse IKKα with 6 myc tags, expressed from pSRα-6myc-mIKKα in 293T cells) (enzyme, UniProt Q60680 1-745, looked up, not shown: small tags and cut ends)
chain: MERPPGLRPGAGGPWEMRERLGTGGFGNVSLYQHRELDLKIAIKSCRLELSSKNRERWCHEIQIMKKLDHANVVKACDVPEELNFLINDVPLLAMEYCSGGDLRKLLNKPENCCGLKESQILSLLSDIGSGIRYLHENKIIHRDLKPENIVLQDVGGKTIHKIIDLGYAKDVDQGSLCTSFVGTLQYLAPELFENKPYTATVDYWSFGTMVFECIAGYRPFLHHLQPFTWHEKIKKKDPKCIFACEEMTGEVRFSSHLPQPNSLCSLIVEPMESWLQLMLNWDPQQRGGPIDLTLKQPRCFALMDHILNLKIVHILNMTSAKIISFLLPCDESLHSLQSRIERETGINTGSQELLSETGISLDPRKPASQCVLDGVRGCDSYMVYLFDKSKTVYEGPFASRSLSDCVNYIVQDSKIQLPIIQLRKVWAEAVHYVSGLKEDYSRLFQGQRAAMLSLLRYNANLTKMKNTLISASQQLKAKLEFFRKSIQLDLERYSEQMTYGISSEKMLKAWKEMEEKAIHYSEVGVIGYLEDQIMSLHTEIMELQKSPYGRRQGDLMESLEQRAIDLYKQLKHRPPDHLYSDSTEMVKIIVHTVQSQDRVLKELFGHLSKLLGCKQKIIDLLPKVEVALSNIKEADNTVMFMQGKRQKEIWHLLKIACTQSSARSLVGSSLEGTVTPPVSAWLPPTLADREHPLTCVVTPQDGETLAQMIEENLNCLGHLSTIIREANEDQSSSLMSLDWSWLAE
As for B1, in assay [1], the binding entry is “binds”.

B2: IKKα (endogenous, mouse bone marrow dendritic cells) (enzyme, UniProt Q60680 1-745, looked up)
chain: MERPPGLRPGAGGPWEMRERLGTGGFGNVSLYQHRELDLKIAIKSCRLELSSKNRERWCHEIQIMKKLDHANVVKACDVPEELNFLINDVPLLAMEYCSGGDLRKLLNKPENCCGLKESQILSLLSDIGSGIRYLHENKIIHRDLKPENIVLQDVGGKTIHKIIDLGYAKDVDQGSLCTSFVGTLQYLAPELFENKPYTATVDYWSFGTMVFECIAGYRPFLHHLQPFTWHEKIKKKDPKCIFACEEMTGEVRFSSHLPQPNSLCSLIVEPMESWLQLMLNWDPQQRGGPIDLTLKQPRCFALMDHILNLKIVHILNMTSAKIISFLLPCDESLHSLQSRIERETGINTGSQELLSETGISLDPRKPASQCVLDGVRGCDSYMVYLFDKSKTVYEGPFASRSLSDCVNYIVQDSKIQLPIIQLRKVWAEAVHYVSGLKEDYSRLFQGQRAAMLSLLRYNANLTKMKNTLISASQQLKAKLEFFRKSIQLDLERYSEQMTYGISSEKMLKAWKEMEEKAIHYSEVGVIGYLEDQIMSLHTEIMELQKSPYGRRQGDLMESLEQRAIDLYKQLKHRPPDHLYSDSTEMVKIIVHTVQSQDRVLKELFGHLSKLLGCKQKIIDLLPKVEVALSNIKEADNTVMFMQGKRQKEIWHLLKIACTQSSARSLVGSSLEGTVTPPVSAWLPPTLADREHPLTCVVTPQDGETLAQMIEENLNCLGHLSTIIREANEDQSSSLMSLDWSWLAE
As to B2, the binding result in assay [2] and in assay [3] was “binds” throughout.
